Source: PubChem BioAssay AID540256 (National Center for Advancing Translational Sciences (NCATS), 2011)
The whole screen tested about 300,000 compounds, of which about 3,700 (1.2%) were called active. The shares of active, inactive and inconclusive entries below differ from those in the screen. Calls follow the shape of the full dose curve; tested in HEK293 cells. Potencies beside an inconclusive call are fits to weak or partial responses and may not hold up.

Experiment: qHTS for Inhibitors of binding or entry into cells for Lassa Virus; also: nearly all actives have a fitted effect of over 50% in size
Settings: Lassa virus pseudotype entry inhibition, cell reporter; activity change, negative = inhibition: at 37.9 µM (top of the series) unless noted
% is scaled to controls: 0 for no effect and ±100 for the full control effect; potency is read from the fitted curve at half-maximal effect.

Compound	activity change, negative = inhibition	Potency
COc1ccccc1NC(=O)CCc1nnc2ccc(N3CCC4(CC3)OCCO4)nn12	inactive: 0.895% [at 46.1 µM]	–
CCc1ccc(NS(=O)(=O)c2ccc3[nH]cc(C(=O)NC4CCCC4)c(=O)c3c2)cc1	inactive: 8.02% [at 46.1 µM]	–
Cc1cc(NC(=O)Cc2csc(-c3ccccc3)n2)ccc1Br	inactive: 2.95%	–
CC(C)(CCc1ccccn1)C(=O)C(CCc1ccccn1)CCc1ccccn1	–	inconclusive: 8.91 µM [inhibitor, partial curve]
CCOc1ccc(Nc2n[nH]c(=S)s2)cc1	–	inconclusive: 0.355 µM [activator, partial curve, poor fit]
CN1/C(=C\C(=O)c2ccco2)C(C)(C)c2ccccc21	–	inconclusive: 29.1 µM [inhibitor, single point]
CC(C)(C)C(=O)Cn1ncc(NC2CC2)c(Br)c1=O	inactive: 3.86%	–
COc1cccc(C(=O)Nc2ccccc2C(=O)OCc2cc(=O)n3nc(C)sc3n2)c1	–	inconclusive: 8.91 µM [activator, partial curve, poor fit]
Cc1cc(=O)[nH]c(N/N=C/c2cccc(Br)c2)n1	–	inconclusive: 3.55 µM [activator, full curve, poor fit]
O=C(CNC(=S)N(CCCN1CCOCC1)Cc1cccs1)NCCCN1CCOCC1	–	inconclusive: 2.82 µM [inhibitor, single point]
Cc1ccc(C)c(Cn2nnc(C(=O)NCc3ccccc3)c2N)c1	inactive: 7.11% [at 46.1 µM]	–
S=C(Nc1ccc(Cl)cc1Cl)NC1CCCCC1	–	inconclusive: 35.5 µM [inhibitor, single point]
Cc1ccc(O)c(C(CC(=O)NC2CCCCC2)c2ccccc2)c1 (configuration not stated)	–	inconclusive: 35.5 µM [inhibitor, single point]
CC(=O)c1ccc(NS(=O)(=O)c2ccc3[nH]c4c(c3c2)CCCCCC4)cc1	–	inconclusive: 8.91 µM [inhibitor, partial curve, poor fit]
CCC(CC)C(=O)N1CCc2cc(OC)c(OC)cc2C1COc1ccccc1OC (configuration not stated)	inactive: -4.61% [at 46.1 µM]	–
COc1ccc(NC(=O)CN(C)C(=O)c2ccc(S(=O)(=O)Nc3ccccc3F)cc2)cc1	inactive: -2.28%	–
CCOc1ccc(CNC(=O)c2sc3nc(C)cc(C)c3c2-n2cccc2)cc1	inactive: 3.71% [at 46.1 µM]	–
COc1ccc(OCc2cc(/C=N\NC(=O)c3ccccc3)ccc2OC)cc1	–	inconclusive: 3.55 µM [inhibitor, partial curve, poor fit]
O=C(COC(=O)c1cc(Cl)ccc1[N+](=O)[O-])Nc1cccc2ccccc12	–	inconclusive: 1.26 µM [activator, partial curve]
O=C(Nc1ccc2c(c1)OCCO2)c1ccc2ccccc2n1	–	inconclusive: 6.31 µM [inhibitor, partial curve, poor fit]
O=C(CCc1nnc(CCCc2ccccc2)o1)NCCCC1CCCC1	–	inconclusive: 0.891 µM [activator, full curve, poor fit]
CN1CCN(C(CNC(=O)C(=O)Nc2ccc(F)cc2)c2cccnc2)CC1 (configuration not stated)	–	inconclusive: 17.8 µM [inhibitor, partial curve, poor fit]
CCOc1ccc(C2C(C#N)=C(N)N3C(=C2C#N)Sc2ccccc23)cc1 (configuration not stated)	inactive: 21%	–

Look-ups from the entries so far:
Potency with O=C(COC(=O)c1cc(Cl)ccc1[N+](=O)[O-])Nc1cccc2ccccc12 is entered as inconclusive: 1.26 µM [activator, partial curve]
activity change, negative = inhibition with Cc1cc(NC(=O)Cc2csc(-c3ccccc3)n2)ccc1Br is entered as inactive: 2.95%

Filtered by structure: the compounds so far with a Cl atom
Compound	activity change, negative = inhibition	Potency
S=C(Nc1ccc(Cl)cc1Cl)NC1CCCCC1	–	inconclusive: 35.5 µM [inhibitor, single point]
O=C(COC(=O)c1cc(Cl)ccc1[N+](=O)[O-])Nc1cccc2ccccc12	–	inconclusive: 1.26 µM [activator, partial curve]

More structures

Compound	activity change, negative = inhibition	Potency
O=[N+]([O-])c1cccc(-c2ccc(/C=N/n3c(-c4ccccc4)n[nH]c3=S)o2)c1	inactive: 12.1%	–
CC(=O)c1ccc(NC(=O)/C(=C\c2ccccc2)NC(=O)/C=C/c2ccccc2)cc1	inactive: -0.429%	–
Cc1ccc(C(=O)OCC(=O)N2CCCc3ccccc32)cc1C	inactive: -2.78%	–
O=C(OCC1OC(OC(=O)c2cc(O)c(O)c(OC(=O)c3cc(O)c(O)c(O)c3)c2)[C@@H](OC(=O)c2cc(O)c(O)c(OC(=O)c3cc(O)c(O)c(O)c3)c2)C(OC(=O)c2cc(O)c(O)c(OC(=O)c3cc(O)c(O)c(O)c3)c2)C1OC(=O)c1cc(O)c(O)c(OC(=O)c2cc(O)c(O)c(O)c2)c1)c1cc(O)c(O)c(OC(=O)c2cc(O)c(O)c(O)c2)c1 (some centres not stated)	–	active: 11.2 µM
C=C(C[C@]1(C(=O)OC)C[C@]2(CC=C(C)C)C(=O)C(C(=O)CC(C)C)=C(O)[C@@](CC=C(C)C)(C1)C2=O)C(=O)OC	–	inconclusive: 0.668 µM [inhibitor, full curve, poor fit]
CCCNC(=S)N1CCN(c2nc(C)nc3sc4c(c23)CCCC4)CC1	–	inconclusive: 28.2 µM [inhibitor, partial curve, poor fit]
CCOC(=O)c1c(NC(=O)COC(=O)c2ccc(O)cc2)sc(C(=O)NC)c1C	inactive: 1.11%	–
C/C(=N\Nc1nc2ccccc2[nH]1)c1ccc([N+](=O)[O-])cc1	–	inconclusive: 20 µM [activator, single point]
Cc1c(Cl)cccc1NC(=S)NC1CCN(Cc2ccccc2)CC1	–	inconclusive: 35.5 µM [inhibitor, single point]
Cc1ccc(Nc2ccccc2)cc1	inactive: 11.2%	–
O=C(COc1ccc(S(=O)(=O)N2CCCC2)cc1Cl)NCc1cccnc1	–	inconclusive: 14.1 µM [inhibitor, partial curve, poor fit]
CCOc1ccc(OCC(O)CNC2CCN(Cc3ccccc3)CC2)cc1 (configuration not stated)	–	active: 6.31 µM
COc1ccccc1NC(=O)C1CCCN(c2ncnc3c2nc2n3CCCCC2)C1 (configuration not stated)	–	inconclusive: 7.08 µM [inhibitor, partial curve, poor fit]
Cc1nc(N)sc1C(=O)N1N=N1	inactive: 22.3%	–
C=CCNS(=O)(=O)c1ccc(OC)c(C)c1	–	inconclusive: 25.9 µM [activator, single point]
COC(=O)C1=C(C)N(c2ccc(F)cc2)/C(=C/c2ccc(O)cc2)C1=O	–	inconclusive: 4.47 µM [inhibitor, full curve, poor fit]
COc1ccc(S(=O)(=O)NCCSCc2ccco2)cc1C	inactive: -2.36%	–
NS(=O)(=O)c1ccc(NC(=S)Nc2ccc(Br)c(Cl)c2)cc1	–	inconclusive: 22.4 µM [inhibitor, single point]
O=C(N/N=C\c1c(O)ccc2ccccc12)c1cncc(Br)c1	–	inconclusive: 2.51 µM [inhibitor, partial curve, poor fit]
Cc1ccc(C)c(S(=O)(=O)Nc2ccc(C(=O)NCC(c3ccco3)N3CCCCC3)cc2)c1 (configuration not stated)	–	inconclusive: 25.1 µM [inhibitor, single point]
O=C(CN1CCC(C(=O)c2cccc(F)c2)CC1)NCc1cccs1	–	inconclusive: 29.1 µM [inhibitor, single point]
O=C(N/N=C/c1ccc(F)cc1)c1cccc(NC(=O)c2ccc(F)cc2)c1	–	inconclusive: 1.78 µM [activator, partial curve, poor fit]
CCOc1ccc(-c2nonc2NC(=O)COc2ccc(C)c(C)c2)cc1OCC	inactive: 2.55% [at 46.1 µM]	–

Compound	activity change, negative = inhibition	Potency
Cc1nc2cc(-c3cccc(F)c3)nn2c(C)c1CCC(=O)NC1CCCCC1	–	inconclusive: 7.08 µM [inhibitor, full curve, poor fit]
CCC(c1nnnn1CCc1ccccc1)N(Cc1ccco1)Cc1cc2cc(C)cc(C)c2[nH]c1=O (configuration not stated)	–	inconclusive: 28.2 µM [inhibitor, single point]
Cc1occc1-c1nnc(SCc2cc(=O)n3cc(Br)ccc3n2)n1C	–	inconclusive: 18.3 µM [activator, partial curve, poor fit]
O=C(O)c1ccc(/C=N/Nc2ccc(F)cc2F)cc1	–	active: 2.82 µM
Cc1cccc(CSc2cn(CC(=O)N3CCCCCC3)c3ccccc23)c1	–	inconclusive: 28.2 µM [inhibitor, single point]
COc1ccc(OC)c(CNc2ncnc3onc(-c4ccc(Cl)cc4)c23)c1	–	inconclusive: 1.12 µM [inhibitor, full curve, poor fit]
CN1CCN(C2=C(NS(=O)(=O)c3cccs3)C(=O)c3ccccc3C2=O)CC1	–	inconclusive: 3.55 µM [inhibitor, partial curve, poor fit]
CCCN(CCC)C(=O)C[n+]1cccc(/C=N/O)c1	–	inconclusive: 25.1 µM [inhibitor, partial curve, poor fit]
CC(=O)N1CCN(c2ccc(NC(=O)c3ccc([N+](=O)[O-])o3)cc2Cl)CC1	–	inconclusive: 11.2 µM [inhibitor, partial curve, poor fit]
C/C(=N\NC(=O)C1CC1)c1cccnc1	inactive: 5.65%	–
O=C(NCC1CCCO1)C(=O)N/N=C/c1cc(Cl)ccc1O (configuration not stated)	–	inconclusive: 8.91 µM [inhibitor, partial curve, poor fit]
O=C(NC1CCCC1)C(c1ccccc1F)N(C(=O)c1ccco1)C1CCCC1 (configuration not stated)	inactive: -2.15%	–
C/C(=N\Nc1nc2ccccc2s1)c1ccc(Br)s1	–	inconclusive: 15.8 µM [inhibitor, single point]
CSc1ccc(CN2CCC(C(=O)NCc3ccc(C)cc3)CC2)cc1	–	inconclusive: 29.1 µM [inhibitor, single point]
Fc1ccc(-c2cnn3c(-c4ccncc4)ccnc23)cc1	–	inconclusive: 7.08 µM [inhibitor, partial curve, poor fit]
COc1ccc(CSC(=N)N)cc1[N+](=O)[O-]	–	inconclusive: 14.1 µM [inhibitor, partial curve]
Cc1ccc(CSCC(=O)NCc2ccco2)cc1	–	active: 1.41 µM
COc1cccc(NC(=O)C(=O)NCC(c2cccnc2)N2CCN(c3ccccc3)CC2)c1 (configuration not stated)	–	active: 11.2 µM
COc1ccc(Cc2nc(C(=O)Nc3ccc(OC)cc3)cs2)cc1	–	inconclusive: 28.2 µM [inhibitor, single point]
CC(=O)c1c(OC(=O)c2ccco2)c2ccccc2n1C	inactive: 12.1%	–
CCCOc1ccc(N2C(=O)CC(N3CCN(c4ccc([N+](=O)[O-])cc4)CC3)C2=O)cc1 (configuration not stated)	inactive: 11.3% [at 46.1 µM]	–
